Consider one molecule from US20250381269A1, “BISPECIFIC ANTIBODY BINDING EGFR AND B7-H3” (FORTVITA BIOLOGICS (SINGAPORE) PTE. LTD., priority 2022, published 2025).

For this test, the target named is T1, B7H3 (human) (UniProt Q5ZPR3).
T1 sequence (membrane protein chain, looked up): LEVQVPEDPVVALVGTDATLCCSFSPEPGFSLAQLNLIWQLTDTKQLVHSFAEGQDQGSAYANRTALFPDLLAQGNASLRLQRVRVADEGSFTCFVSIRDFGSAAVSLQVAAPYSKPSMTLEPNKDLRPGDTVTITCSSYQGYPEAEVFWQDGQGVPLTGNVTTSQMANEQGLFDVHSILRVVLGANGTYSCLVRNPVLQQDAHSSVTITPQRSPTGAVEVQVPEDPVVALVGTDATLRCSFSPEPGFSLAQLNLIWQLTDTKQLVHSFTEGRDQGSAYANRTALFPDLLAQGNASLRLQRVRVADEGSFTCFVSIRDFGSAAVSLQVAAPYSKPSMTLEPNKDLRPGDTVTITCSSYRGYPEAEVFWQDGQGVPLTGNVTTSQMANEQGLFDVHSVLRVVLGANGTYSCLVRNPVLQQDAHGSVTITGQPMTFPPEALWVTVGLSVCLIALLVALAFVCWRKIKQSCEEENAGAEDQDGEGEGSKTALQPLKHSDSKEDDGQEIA
The experiment in a line: flow cytometry on cell lines, 10 µg/mL antibody, APC-anti human Fc secondary antibody, y axis 'Fold of expression (mAb/IgG)'. Background: A flow cytometer gives signals particle by particle.

These are yes or no findings as the source states them, for the method shown. Some results given as binding are weak or reduced against the parent protein; the word gives no strength.

B1: Hz20G5.26mAb (antibody, V domains shown)
VH: QVQLVQSGAEVKKPGASVKVSCKASGYTFTEYIMHWVRQAPGQRLEWMGGINPGTGGTTYNQKFKDRVTITVDTSASTAYMELSSLRSEDTAVYYCTRRTPPWHFAVWGQGTLVTVSS
VL: DIQLTQSPSFLSASVGDRVTITCSASSSVSYIHWYQQKPGKAPKRWIYDTSRLASGVPSRFSGSGSGTEFTLTISSLQPEDFATYYCQQWSSAPLTFGGGTKVEIK
As to B1, the binding entry is “binds”.
